# Paper PMC12697895, “Vinburnine Sensitizes Radiotherapy Efficacy in Nasopharyngeal Carcinoma by Triggering Pyroptosis and Immune Responses via Activation of EDAR‐NFκB Pathway” (Advanced Science, 2025)
# These are yes or no findings as the source states them, for the method shown. Binding seen in cells or lysates may run through a third protein. Some entries that bind do so weakly or less than the wild type.
# B1: Ectodysplasin A receptor-associated death domain protein (EDARADD) (protein, UniProt Q8WWZ3 1-215)
# chain: MGLRTTKQMGRGTKAPGHQEDHMVKEPVEDTDPSTLSFNMSDKYPIQDTELPKAEECDTITLNCPRNSDMKNQGEENGFPDSTGDPLPEISKDNSCKENCTCSSCLLRAPTISDLLNDQDLLDVIRIKLDPCHPTVKNWRNFASKWGMSYDELCFLEQRPQSPTLEFLLRNSQRTVGQLMELCRLYHRADVEKVLRRWVDEEWPKRERGDPSRHF
# Molecular target: T1, Ectodysplasin A receptor (EDAR) (human (endogenous in NPC cells)) (UniProt Q9UNE0)
# T1 sequence: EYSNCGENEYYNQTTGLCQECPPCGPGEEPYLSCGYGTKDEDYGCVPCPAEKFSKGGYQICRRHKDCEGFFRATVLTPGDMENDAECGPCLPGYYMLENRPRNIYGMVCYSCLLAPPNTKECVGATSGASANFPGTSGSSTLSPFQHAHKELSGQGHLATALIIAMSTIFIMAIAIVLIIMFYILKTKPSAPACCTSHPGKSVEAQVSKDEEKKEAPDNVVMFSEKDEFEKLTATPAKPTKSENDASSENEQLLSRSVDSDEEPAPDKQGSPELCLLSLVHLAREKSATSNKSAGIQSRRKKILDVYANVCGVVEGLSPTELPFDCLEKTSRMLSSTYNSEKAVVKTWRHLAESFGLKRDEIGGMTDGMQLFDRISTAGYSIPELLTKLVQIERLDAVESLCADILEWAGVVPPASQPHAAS
# Test: co-IP; precipitation with an anti-EDAR antibody and Protein A+G Agarose from cells treated with 5 µM vinburnine and/or 2 Gy IR for 48 h; western blot for EDARADD and TRAF6
binder,measurement,value
B1,binding,binds
